Measured values reported in article PMC7367195.
Results are given in words; binding and its absence hold for the method and conditions named. Binding seen in cells or lysates may run through a third protein. These calls come from enrichment with a bait or labelling near it, and not all partners need be listed.

Sequences of proteins named here, by UniProt entry; tags and fusion partners are left off.
UniProt Q8R418: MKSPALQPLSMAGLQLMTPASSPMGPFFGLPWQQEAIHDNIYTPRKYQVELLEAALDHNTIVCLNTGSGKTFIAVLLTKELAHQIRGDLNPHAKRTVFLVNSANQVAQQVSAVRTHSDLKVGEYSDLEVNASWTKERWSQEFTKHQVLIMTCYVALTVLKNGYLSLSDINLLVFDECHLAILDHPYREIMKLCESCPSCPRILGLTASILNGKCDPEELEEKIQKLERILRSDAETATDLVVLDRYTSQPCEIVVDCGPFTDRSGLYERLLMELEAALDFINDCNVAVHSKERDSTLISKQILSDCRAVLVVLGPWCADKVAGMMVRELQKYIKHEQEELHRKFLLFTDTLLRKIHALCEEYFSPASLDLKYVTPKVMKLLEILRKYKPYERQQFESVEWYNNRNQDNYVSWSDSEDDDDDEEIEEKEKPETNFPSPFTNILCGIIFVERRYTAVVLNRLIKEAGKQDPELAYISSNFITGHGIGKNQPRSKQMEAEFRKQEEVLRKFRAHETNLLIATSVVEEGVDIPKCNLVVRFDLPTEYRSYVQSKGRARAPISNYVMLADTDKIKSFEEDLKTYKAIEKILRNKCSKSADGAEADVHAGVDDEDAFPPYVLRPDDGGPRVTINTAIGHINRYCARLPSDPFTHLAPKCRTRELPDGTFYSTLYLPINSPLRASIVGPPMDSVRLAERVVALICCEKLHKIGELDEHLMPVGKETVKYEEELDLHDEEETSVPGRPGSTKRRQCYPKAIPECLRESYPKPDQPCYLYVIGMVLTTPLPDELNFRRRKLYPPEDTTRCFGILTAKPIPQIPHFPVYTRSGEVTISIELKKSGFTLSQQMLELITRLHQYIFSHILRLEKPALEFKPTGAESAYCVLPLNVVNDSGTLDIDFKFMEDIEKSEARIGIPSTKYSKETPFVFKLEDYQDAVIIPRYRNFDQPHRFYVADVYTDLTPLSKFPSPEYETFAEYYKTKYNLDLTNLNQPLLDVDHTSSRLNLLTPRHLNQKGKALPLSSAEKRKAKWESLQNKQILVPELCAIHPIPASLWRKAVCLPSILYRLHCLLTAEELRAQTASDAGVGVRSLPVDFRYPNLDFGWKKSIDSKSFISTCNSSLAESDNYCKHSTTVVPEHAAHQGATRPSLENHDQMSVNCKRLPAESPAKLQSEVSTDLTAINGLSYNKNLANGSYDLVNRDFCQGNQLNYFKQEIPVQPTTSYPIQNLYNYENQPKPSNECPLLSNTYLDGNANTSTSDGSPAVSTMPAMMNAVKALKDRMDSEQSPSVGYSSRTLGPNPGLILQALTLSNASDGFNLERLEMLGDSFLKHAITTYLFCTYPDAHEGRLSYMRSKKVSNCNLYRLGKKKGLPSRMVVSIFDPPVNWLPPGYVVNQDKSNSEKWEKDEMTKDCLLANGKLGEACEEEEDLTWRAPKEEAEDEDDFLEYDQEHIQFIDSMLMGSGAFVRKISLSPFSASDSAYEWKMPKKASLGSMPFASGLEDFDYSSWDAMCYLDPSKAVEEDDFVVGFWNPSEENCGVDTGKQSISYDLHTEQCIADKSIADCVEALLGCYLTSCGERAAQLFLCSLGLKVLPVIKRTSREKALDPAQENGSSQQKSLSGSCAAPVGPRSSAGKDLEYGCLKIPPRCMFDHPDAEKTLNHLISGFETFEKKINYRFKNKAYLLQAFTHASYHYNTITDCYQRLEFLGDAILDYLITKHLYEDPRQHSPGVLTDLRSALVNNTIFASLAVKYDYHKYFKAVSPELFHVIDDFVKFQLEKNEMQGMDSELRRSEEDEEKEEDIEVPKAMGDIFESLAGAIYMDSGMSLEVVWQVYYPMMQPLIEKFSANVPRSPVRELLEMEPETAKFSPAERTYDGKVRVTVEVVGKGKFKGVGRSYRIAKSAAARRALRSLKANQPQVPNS
UniProt Q6P4T2: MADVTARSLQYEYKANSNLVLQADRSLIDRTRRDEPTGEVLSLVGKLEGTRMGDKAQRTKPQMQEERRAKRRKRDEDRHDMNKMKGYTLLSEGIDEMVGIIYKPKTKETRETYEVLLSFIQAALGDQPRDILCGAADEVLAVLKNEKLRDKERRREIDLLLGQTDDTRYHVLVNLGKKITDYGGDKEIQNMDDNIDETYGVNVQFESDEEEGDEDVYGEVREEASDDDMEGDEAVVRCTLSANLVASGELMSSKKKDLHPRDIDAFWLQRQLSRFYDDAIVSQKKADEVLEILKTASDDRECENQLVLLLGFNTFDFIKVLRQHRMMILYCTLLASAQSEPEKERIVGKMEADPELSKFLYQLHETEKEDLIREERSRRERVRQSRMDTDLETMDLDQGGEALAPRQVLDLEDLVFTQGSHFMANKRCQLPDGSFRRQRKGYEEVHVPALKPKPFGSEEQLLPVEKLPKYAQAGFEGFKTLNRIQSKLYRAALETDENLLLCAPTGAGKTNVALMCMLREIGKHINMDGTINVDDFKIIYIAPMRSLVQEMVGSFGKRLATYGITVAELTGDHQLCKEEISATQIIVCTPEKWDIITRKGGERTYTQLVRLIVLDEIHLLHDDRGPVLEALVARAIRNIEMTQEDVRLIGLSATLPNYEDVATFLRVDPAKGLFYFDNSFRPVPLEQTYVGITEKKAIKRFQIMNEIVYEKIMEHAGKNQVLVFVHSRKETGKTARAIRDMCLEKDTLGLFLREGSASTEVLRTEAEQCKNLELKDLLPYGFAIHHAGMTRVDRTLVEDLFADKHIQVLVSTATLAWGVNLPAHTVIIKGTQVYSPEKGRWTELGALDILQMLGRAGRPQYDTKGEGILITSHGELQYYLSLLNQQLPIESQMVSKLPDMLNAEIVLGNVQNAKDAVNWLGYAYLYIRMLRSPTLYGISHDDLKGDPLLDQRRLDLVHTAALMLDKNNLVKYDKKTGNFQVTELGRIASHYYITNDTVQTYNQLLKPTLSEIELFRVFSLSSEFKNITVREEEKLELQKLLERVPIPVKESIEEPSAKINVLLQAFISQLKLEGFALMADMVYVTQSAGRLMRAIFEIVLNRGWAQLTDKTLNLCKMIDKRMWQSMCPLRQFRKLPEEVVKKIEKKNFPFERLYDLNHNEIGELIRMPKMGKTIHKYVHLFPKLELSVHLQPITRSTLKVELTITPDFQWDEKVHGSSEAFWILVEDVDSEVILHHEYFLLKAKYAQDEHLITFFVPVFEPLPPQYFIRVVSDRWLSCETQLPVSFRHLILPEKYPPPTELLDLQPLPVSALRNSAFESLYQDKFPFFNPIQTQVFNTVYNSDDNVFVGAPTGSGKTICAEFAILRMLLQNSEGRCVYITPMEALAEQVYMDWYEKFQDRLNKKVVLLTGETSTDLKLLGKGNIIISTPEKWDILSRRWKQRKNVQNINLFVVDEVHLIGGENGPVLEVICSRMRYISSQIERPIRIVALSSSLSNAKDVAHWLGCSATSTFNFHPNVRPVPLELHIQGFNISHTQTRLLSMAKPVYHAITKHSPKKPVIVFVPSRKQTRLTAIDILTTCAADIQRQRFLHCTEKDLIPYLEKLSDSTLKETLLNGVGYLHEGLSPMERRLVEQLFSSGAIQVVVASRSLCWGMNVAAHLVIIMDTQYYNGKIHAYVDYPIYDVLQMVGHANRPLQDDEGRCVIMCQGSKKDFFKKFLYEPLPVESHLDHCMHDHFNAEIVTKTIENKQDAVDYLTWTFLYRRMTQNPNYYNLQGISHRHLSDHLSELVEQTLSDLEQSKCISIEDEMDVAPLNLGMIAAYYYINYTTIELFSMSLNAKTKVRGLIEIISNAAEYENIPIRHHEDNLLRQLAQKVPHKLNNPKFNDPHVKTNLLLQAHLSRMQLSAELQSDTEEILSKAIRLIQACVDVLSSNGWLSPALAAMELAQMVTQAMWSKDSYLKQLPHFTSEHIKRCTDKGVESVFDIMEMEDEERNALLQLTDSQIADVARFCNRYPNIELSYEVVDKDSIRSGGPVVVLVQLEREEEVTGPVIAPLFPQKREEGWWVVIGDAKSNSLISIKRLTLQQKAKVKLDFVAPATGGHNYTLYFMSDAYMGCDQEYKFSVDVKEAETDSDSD
UniProt Q60749: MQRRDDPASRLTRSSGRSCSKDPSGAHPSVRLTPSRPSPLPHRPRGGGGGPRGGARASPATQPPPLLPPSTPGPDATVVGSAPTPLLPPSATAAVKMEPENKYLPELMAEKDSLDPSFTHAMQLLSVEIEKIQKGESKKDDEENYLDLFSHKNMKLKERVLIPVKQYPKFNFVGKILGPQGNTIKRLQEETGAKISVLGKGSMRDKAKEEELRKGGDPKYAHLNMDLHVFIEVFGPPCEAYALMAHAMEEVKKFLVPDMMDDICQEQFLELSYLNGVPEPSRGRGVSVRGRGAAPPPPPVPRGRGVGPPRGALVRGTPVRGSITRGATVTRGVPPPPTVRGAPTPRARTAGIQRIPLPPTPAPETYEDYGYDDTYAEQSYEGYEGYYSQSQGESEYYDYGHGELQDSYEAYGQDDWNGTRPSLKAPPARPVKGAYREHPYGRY

B1: SFPQ (Splicing factor, proline- and glutamine-rich) (protein, UniProt Q8VIJ6 1-699)
chain: MSRDRFRSRGGGGGGFHRRGGGGGRGGLHDFRSPPPGMGLNQNRGPMGPGPGGPKPPLPPPPPHQQQQQPPPQQPPPQQPPPHQQPPPHQPPHQQPPPPPQESKPVVPQGPGSAPGVSSAPPPAVSAPPANPPTTGAPPGPGPTPTPPPAVPSTAPGPPPPSTPSSGVSTTPPQTGGPPPPPAGGAGPGPKPGPGPGGPKGGKMPGGPKPGGGPGMGAPGGHPKPPHRGGGEPRGGRQHHAPYHQQHHQGPPPGGPGPRTEEKISDSEGFKANLSLLRRPGEKTYTQRCRLFVGNLPADITEDEFKRLFAKYGEPGEVFINKGKGFGFIKLESRALAEIAKAELDDTPMRGRQLRVRFATHAAALSVRNLSPYVSNELLEEAFSQFGPIERAVVIVDDRGRSTGKGIVEFASKPAARKAFERCSEGVFLLTTTPRPVIVEPLEQLDDEDGLPEKLAQKNPMYQKERETPPRFAQHGTFEYEYSQRWKSLDEMEKQQREQVEKNMKDAKDKLESEMEDAYHEHQANLLRQDLMRRQEELRRMEELHSQEMQKRKEMQLRQEEERRRREEEMMIRQREMEEQMRRQREESYSRMGYMDPRERDMRMGGGGTMNMGDPYGSGGQKFPPLGGGGGIGYEANPGVPPATMSGSMMGSDMRTERFGQGGAGPVGGQGPRGMGPGTPAGYGRGREEYEGPNKKPRF
B2: TRIM33 (Tripartite motif-containing 33) (protein, UniProt Q99PP7 1-1142)
chain: MAENKGGGEAESGGGGSGSAPVTAGAAGPTAQEAEPPLAAVLVEEEEEEGGRAGAEGGAAGPDDGGVAAASSSSAPAASVPAASVGSAVPGGAASTPAPAAAPAPAPAPAPAPAPAPAPAPAPGSSSGPPLGPPASLLDTCAVCQQSLQSRREAEPKLLPCLHSFCLRCLPEPERQLSVPIPGGSNGDVQQVGVIRCPVCRQECRQIDLVDNYFVKDTSEAPSSSDEKSEQVCTSCEDNASAVGFCVECGEWLCKTCIEAHQRVKFTKDHLIRKKEDVSESVGTSGQRPVFCPVHKQEQLKLFCETCDRLTCRDCQLLEHKEHRYQFLEEAFQNQKGAIENLLAKLLEKKNYVHFAATQVQNRIKEVNETNKRVEQEIKVAIFTLINEINKKGKSLLQQLENVTKERQMKLLQQQNDITGLSRQVKHVMNFTNWAIASGSSTALLYSKRLITFQLRHILKARCDPVPAANGAIRFHCDPTFWAKNVVNLGNLVIESKPAPGYTPNVVVGQVPPGTNHISKTPGQINLAQLRLQHMQQQVYAQKHQQLQQMRLQQPPAPIPTTTATTQQHPRQAAPQMLQQQPPRLISVQTMQRGNMNCGAFQAHQMRLAQNAARIPGIPRHSAPQYSMMQPHLQRQHSNPGHAGPFPVVSAHNPINPTSPTTATMANANRGPTSPSVTAIELIPSVTNPENLPSLPDIPPIQLEDAGSSSLDNLLSRYISGSHLPPQPTSTMNPSPGPSALSPGSSGLSNSHTPVRPPSTSSTGSRGSCGSSGRTAEKSAHSFKSDQVKVKQEPGTEEEICSFSGAVKQEKTEDGRRSACMLSSPESSLTPPLSTNLHLESELDTLTGLENHVKTEPTDISESCKQSGLSNLVNGKSPIRNLMHRSARIGGDGNSKDDDPNEDWCAVCQNGGDLLCCEKCPKVFHLTCHVPTLLSFPSGDWICTFCRDIGKPEVEYDCDNMQHSKKGKTAQGLSPVDQRKCERLLLYLYCHELSIEFQEPVPVSIPNYYKIIKKPMDLSTVKKKLQKKHSQHYQIPDDFVADVRLIFKNCERFNEMMKVVQVYADTQEINLKGDSEVAKAGKAVALYFEDKLSEIYSDRTFTPLPEFEQDEDDGEVTEDSDEDFIQPRRKRLKSDERPVHIK
B3: PSPC1 (Paraspeckle component 1) (protein, UniProt Q8R326 1-523)
chain: MMLRGNLKQVRIEKNPARLRALESAAGESEPVAAAAMALTLAGEQAPPPAPSEEHPDEELGFTIDIKSFLKPGEKTYTQRCRLFVGNLPTDITEEDFKRLFERYGEPSEVFINRDRGFGFIRLESRTLAEIAKAELDGTILKSRPLRIRFATHGAALTVKNLSPVVSNELLEQAFSQFGPVEKAVVVVDDRGRATGKGFVEFAAKPPARKALERCGDGAFLLTTTPRPVIVEPMEQFDDEDGLPEKLMQKTQQYHKEREQPPRFAQPGTFEFEYASRWKALDEMEKQQREQVDRNIREAKEKLEAEMEAARHEHQLMLMRQDLMRRQEELRRLEELRNQELQKRKQIQLRHEEEHRRREEEMIRHREQEELRRQQEGGFKPNYMENREQEMRMGDMGPRGAINMGDAFSPAPAGTQGPPPMMGMNMNNRGTIPGPPMGPGPAMGPEGAANMGTPMIPDNGAVHNDRFPQGPPSQMGSPMGNRTGSETPQAPMSGVGPVSGGPGGFGRGSQGGNFEGPNKRRRY

target: DICER (mouse (endogenous in testis)) (UniProt Q8R418); assay: affinity purification with mass spectrometry; DICER immunoprecipitated from 17–18 dpp mouse testes (Dynabeads Protein G); beads washed with Tris buffer pH 8.0, digested with trypsin, LC–ESI-MS/MS

| binding | Molecule |
| --- | --- |
| binds | snRNP200 (U5 small nuclear ribonucleoprotein 200 kDa helicase) (from UniProt Q6P4T2 1-2136) |
| binds | KHDRBS1/SAM68 (KH domain-containing, RNA-binding, signal transduction-associated protein 1) (from UniProt Q60749 1-443) |
| binds | B1 |
| binds | B2 |
| binds | B3 |
